Test results taken from patent publication US20030186943A1, “Substituted gamma-phenyl-delta-lactams and uses related thereto” (Inflazyme Pharmaceuticals Ltd., priority 1998, published 2003).
For some assays here: At least one structure is not confirmed: it was looked up by name or label, or the drawing left a doubt. Some results were stated once for a whole list of compounds, not compound by compound.

Columns and labels:
naive CD4+ T-cells = assay: Naive CD4+ T-cell proliferation (AND-TCR transgenic); type: cell-based, mouse; details: concentration not given
Protocol: AND-TCR transgenic mice (Kaye J. et al., Nature 341:746-749, 1989) were used to provide a source of naive-antigen specific CD4+T cells. The AND-T cell antigen receptor recognizes a peptide derived from pigeon cytochrome C (pcc) in the context of the I-E^k class II MHC molecule.
To examine the role of a test compound in naive CD4 T cell activation and proliferation, 1×10^5 AND-lymph node T cells were cultured with 1×10^6 irradiated B10.BR spleen cells in the presence of varying concentrations of pcc peptide (0-10 μM) in 96 well plates. Proliferation was assessed by ^3H thymidine incorporation. All assay conditions were conducted in triplicate. Cell surface activation phenotype of T cells was assessed by flow cytometric analysis.

[1] = test system: K562 chronic myelogenous leukemia cells; assay: Anti-proliferative activity in K562 cells (3H-thymidine uptake); type: cell-based, human
Protocol: 90 μL K562 cells (human chronic myelogenous leukemia cells) were seeded into sterile 96-well assay plates at a density of 1×10^5 cells/mL in RPMI 1640 supplemented with 10% FBS/2 mM L-glutamine. Samples to be tested were prepared in a sterile 96-well assay plate at 10×the final concentration desired. All sample dilutions contained equal amounts of DMSO to compensate for the % DMSO in the highest sample concentration used. Nine concentrations of test compound were examined for effects on growth up to a maximal concentration of 100 μM. 10 μL of the samples and controls (DMSO/normal growth control) were added to the aliquoted cells. The cells were incubated at 37° C./5% CO2 for 48 hours. Following 48 hour incubation, 20 μL of 3H-thymidine was added to each well for a final concentration of 1 μCi/mL. The cells were then incubated at 37° C./5% CO2 for 4 to 6 hours. Following 4-6 hour thymidine pulse, plates were wrapped in plastic and frozen in a −20° C. frost-free freezer overnight. Cells were harvested and ^3H-thymidine counts determined. […] Radioactivity incorporated into DNA was determined after harvesting onto glass fiber filters and scintillation counting.

| Compound | inhibition of naive T-cells (summary of ex vivo studies) (naive CD4+ T-cells) | effect on proliferative ability / cell cycle of K-562 cells [1] |
| --- | --- | --- |
| COc1cc(CC2C[C@@H](c3ccc(OC)c(OC4CCCC4)c3)COC2=O)ccc1O (some centres unmarked) [Compound 43] | >= 80% | – |
| COc1cc(-c2ccc(=O)[nH]n2)ccc1OC(F)F [Zardaverine, reference compound] | – | failed to have any effect |
